In the supplement of paper PMC7646827:
Counter-ions that a name gives are not always drawn. Many values rest on one well or one pass, so single values are uncertain.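 All cells are established human bladder cancer lines, one derived from a patient-derived xenograft. A luminescent ATP assay measured viability as percent inhibition relative to vehicle across seven dilutions. The paper rates scores above 59 very active, 30–59 active, 21–29 semi-active, 9–20 low active, below 9 inactive.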

Legend:
Experiment in all cases: drug sensitivity score DSS3 (score 0-100); higher = more sensitive; extreme values may be limits of the assay
Conditions in all cases: culture: 3D, ultra-low attachment; treatment time: 5 days
UM-UC-12 = system: UM-UC-12
UM-UC-18 = system: UM-UC-18
UM-UC-9 = system: UM-UC-9
T-24 = system: T-24
SW780 = system: SW780
UM-UC-1 = system: UM-UC-1
BC8149 = system: BC8149
UM-UC-6 = system: UM-UC-6
J82 = system: J82
TCCSUP = system: TCCSUP
5637 = system: 5637
UM-UC-5 = system: UM-UC-5
UM-UC-3 = system: UM-UC-3
UM-UC-14 = system: UM-UC-14
SCaBER = system: SCaBER
UM-UC-15 = system: UM-UC-15
UM-UC-17 = system: UM-UC-17

SMILES | drug sensitivity score DSS3 (UM-UC-12) | drug sensitivity score DSS3 (UM-UC-18) | drug sensitivity score DSS3 (UM-UC-9) | drug sensitivity score DSS3 (T-24) | drug sensitivity score DSS3 (SW780) | drug sensitivity score DSS3 (UM-UC-1) | drug sensitivity score DSS3 (BC8149) | drug sensitivity score DSS3 (UM-UC-6) | drug sensitivity score DSS3 (J82) | drug sensitivity score DSS3 (TCCSUP) | drug sensitivity score DSS3 5637 | drug sensitivity score DSS3 (UM-UC-5) | drug sensitivity score DSS3 (UM-UC-3) | drug sensitivity score DSS3 (UM-UC-14) | drug sensitivity score DSS3 (SCaBER) | drug sensitivity score DSS3 (UM-UC-15) | drug sensitivity score DSS3 (UM-UC-17)
COc1ccc(Cn2ccc3ccc(C(=O)NO)cc32)cc1 (max dose 10000 nM) | 0 | 0 | 0 | 0 | 0 | 0 | 0 | 0 | 0 | 0 | 0 | 0 | 0 | 0 | 0 | 0 | 0
CC(=O)N1c2ccc(-c3ccc(C(=O)O)cc3)cc2[C@H](Nc2ccc(Cl)cc2)C[C@@H]1C (max dose 10000 nM) | 10.5 | 0 | 13.8 | 0 | 0 | 0 | 0.148 | 0 | 0 | 0.219 | 1.37 | 0 | 0 | 0 | 0 | 0 | 2.95
CC(=O)O[C@H]1C(=O)[C@@]2(C)[C@H]([C@H](OC(=O)c3ccccc3)[C@]3(O)C[C@H](OC(=O)[C@H](O)[C@@H](NC(=O)c4ccccc4)c4ccccc4)C(C)=C1C3(C)C)[C@]1(OC(C)=O)CO[C@@H]1C[C@@H]2O (max dose 10000 nM) | 29.8 | 56.6 | 11.8 | 0 | 47.9 | 55.4 | 47.3 | 50.7 | 8.42 | 68.9 | 69.6 | 5.45e-05 | 30.5 | 55.1 | 36.7 | 0 | 68.8
C[C@H](NCc1ccc(OCc2cccc(F)c2)cc1)C(N)=O [Safinamide Mesylate] (max dose 10000 nM) | 0 | 0 | 0 | 0 | 0 | 0 | 0 | 0 | 0 | 0 | 0 | 0 | 0 | 0 | 0 | 0 | 0
CC(C)N(C[C@H]1O[C@@H](n2cnc3c(N)ncnc32)[C@H](O)[C@@H]1O)[C@H]1C[C@@H](CCc2nc3cc(C(C)(C)C)ccc3[nH]2)C1 [pinometostat] (max dose 10000 nM) | 0 | 0 | 0 | 0.934 | 0 | 0 | 0 | 0 | 0 | 1.02 | 0 | 0 | 0 | 0 | 0 | 32.4 | 0
COc1c(C)cnc(Cn2cnc3c(Cl)nc(N)nc32)c1C [BIIB021] (max dose 10000 nM) | 28.6 | 39.3 | 14.7 | 29.3 | 21.9 | 32.7 | 40.2 | 20.1 | 12.4 | 55.4 | 51.9 | 31 | 31.2 | 28.3 | 39.9 | 20.9 | 42.4
CCC(C)(C)C(=O)O[C@H]1C[C@@H](C)C=C2C=C[C@H](C)[C@H](CC[C@@H]3C[C@@H](O)CC(=O)O3)[C@H]21 [Simvastatin] (max dose 10000 nM) | 0 | 0 | 0 | 0 | 0 | 0 | 0 | 0 | 0 | 0 | 0 | 0 | 0 | 0 | 0 | 0 | 0
CCc1ccc(CCOc2ccc(CC3SC(=O)NC3=O)cc2)nc1 (stereo unspecified) [Pioglitazone] (max dose 10000 nM) | 0 | 0 | 0 | 0 | 0 | 0 | 0 | 0 | 0 | 0 | 0 | 0 | 0 | 0 | 0 | 0 | 0
N#C[C@@H]1C[C@@H]2C[C@@H]2N1C(=O)[C@@H](N)C12CC3CC(CC(O)(C3)C1)C2 [Saxagliptin hydrate] (max dose 10000 nM) | 0 | 0 | 0 | 0 | 0 | 0 | 0 | 0 | 0 | 0 | 0 | 0 | 0 | 0 | 0 | 0 | 0
C=CC(=O)Nc1cccc(Nc2nc(Nc3ccc(Oc4ccnc(C(=O)NC)c4)cc3)ncc2F)c1 [CNX-774] (max dose 10000 nM) | 1.1 | 0 | 0 | 0 | 0 | 22.9 | 0.848 | 0 | 0 | 1.07 | 1.15 | 0 | 11.5 | 0.239 | 3.56 | 0 | 0.226
Cc1ccc(Nc2c(F)cccc2Cl)c(CC(=O)O)c1 [Lumiracoxib] (max dose 10000 nM) | 0 | 0 | 0 | 0 | 0.38 | 0 | 0 | 0 | 0 | 0 | 0 | 0 | 0 | 0 | 0 | 0 | 0
CC(C)(C)c1cnc(CSc2cnc(NC(=O)C3CCNCC3)s2)o1 (max dose 10000 nM) | 4.58 | 25.3 | 10.9 | 2.55 | 9.49 | 22.2 | 18.5 | 12.5 | 2.24 | 38.9 | 22.9 | 16.7 | 9.88 | 3.03 | 25.9 | 12.1 | 19
CS(=O)(=O)N1CCc2c(-c3cnc(N)nc3)nc(N3CCOCC3)nc21 (max dose 10000 nM) | 16.4 | 9.65 | 0 | 8.87 | 10 | 23 | 18.9 | 22.2 | 3.33 | 26.8 | 20 | 18.6 | 16.8 | 30.1 | 16.5 | 0 | 19.4
COc1cc(OC2CCN(C)CC2)ccc1Nc1ncc2c(n1)n(C1CCCC1)c(=O)n2C [AZ 3146] (max dose 10000 nM) | 0 | 0 | 0 | 0 | 0 | 0.0118 | 0 | 0.306 | 0 | 0.4 | 0 | 0 | 0.0673 | 0 | 0 | 0 | 0
CC(C)C[C@H](NC(=O)CNC(=O)c1cc(Cl)ccc1Cl)B1OC(=O)C(CC(=O)O)(CC(=O)O)O1 [MLN9708] (max dose 10000 nM) | 66.6 | 45.8 | 44.6 | 12.1 | 64.3 | 52.7 | 69.7 | 41.1 | 37.9 | 65.3 | 72.2 | 32.6 | 19.7 | 47.7 | 54.7 | 32.9 | 61.4
CCOCc1nc2c(N)nc3ccccc3c2n1CC(C)(C)O [Resiquimod] (max dose 10000 nM) | 0 | 0 | 0 | 0 | 0 | 0 | 0 | 0 | 0 | 0 | 0 | 0 | 0 | 0 | 0 | 0 | 0
CCn1cc(-c2ccnc3[nH]c(-c4cccc(CN(C)C)c4)cc23)c(-c2ccc(NC(=O)N(C)C)cc2)n1 (max dose 10000 nM) | 0.468 | 18.1 | 0 | 0 | 0 | 37.7 | 16.3 | 34.9 | 0 | 57.2 | 53.1 | 21.2 | 14.6 | 29.1 | 26.9 | 15.2 | 18.4
C[C@H](NC(=O)Cc1cc(F)cc(F)c1)C(=O)N[C@H](C(=O)OC(C)(C)C)c1ccccc1 [DAPT (GSI-IX)] (max dose 10000 nM) | 0.585 | 0.995 | 2.33 | 0.971 | 0 | 2.63 | 6.22 | 0 | 0 | 5.24 | 4 | 0.217 | 1 | 1.51 | 1.22 | 0 | 0.647
C/C=C1\[C@H]2C=C(C)C[C@]1(N)c1ccc(=O)[nH]c1C2 [(-)-Huperzine A (HupA)] (max dose 10000 nM) | 0 | 0 | 0 | 0 | 0 | 0 | 0 | 0 | 0 | 0 | 0 | 0 | 0 | 0 | 0 | 7.93 | 0
CC[C@]1(O)C[C@H]2CN(CCc3c([nH]c4ccccc34)[C@@](C(=O)OC)(c3cc4c(cc3OC)N(C=O)[C@H]3[C@@](O)(C(=O)OC)[C@H](OC(C)=O)[C@]5(CC)C=CCN6CC[C@]43[C@@H]65)C2)C1 [Vincristine sulfate] (max dose 10000 nM) | 7.63 | 0 | 4.67 | 0 | 15.6 | 11.9 | 13.4 | 21.9 | 0 | 31.4 | 28.7 | 0 | 16 | 17.1 | 4.97 | 0 | 30
CN(C)Cc1c(C(=O)NCCOc2ccc(C(=O)NO)cc2)oc2ccccc12 (max dose 10000 nM) | 18 | 7.48 | 2.83 | 12.4 | 0 | 2.92 | 20.5 | 8.14 | 6.5 | 24.8 | 10.8 | 3.74 | 20.6 | 7.01 | 3.35 | 41.1 | 7.53
Cn1nnc2c(C(N)=O)ncn2c1=O [Temozolomide] (max dose 10000 nM) | 0 | 0.0547 | 1.89 | 0.374 | 0.09 | 0.183 | 1.19 | 0.694 | 0 | 0.102 | 1.42 | 0.132 | 1.58 | 1.16 | 1.61 | 0 | 0.121
COCC[n+]1c2c(n(Cc3cnccn3)c1C)C(=O)c1ccccc1C2=O [YM155 (Sepantronium Bromide)] (max dose 10000 nM) | 70.7 | 49.2 | 64.1 | 14.8 | 45.2 | 65.1 | 73.1 | 54 | 2.75 | 83.4 | 86.2 | 69 | 82.6 | 5.02 | 30.5 | 57.5 | 56.5

A run of entries taken from the entries so far, for reference:
SMILES | drug sensitivity score DSS3 (UM-UC-12) | drug sensitivity score DSS3 (UM-UC-18) | drug sensitivity score DSS3 (UM-UC-9) | drug sensitivity score DSS3 (T-24) | drug sensitivity score DSS3 (SW780) | drug sensitivity score DSS3 (UM-UC-1) | drug sensitivity score DSS3 (BC8149) | drug sensitivity score DSS3 (UM-UC-6) | drug sensitivity score DSS3 (J82) | drug sensitivity score DSS3 (TCCSUP) | drug sensitivity score DSS3 5637 | drug sensitivity score DSS3 (UM-UC-5) | drug sensitivity score DSS3 (UM-UC-3) | drug sensitivity score DSS3 (UM-UC-14) | drug sensitivity score DSS3 (SCaBER) | drug sensitivity score DSS3 (UM-UC-15) | drug sensitivity score DSS3 (UM-UC-17)
Cc1ccc(Nc2c(F)cccc2Cl)c(CC(=O)O)c1 [Lumiracoxib] (max dose 10000 nM) | 0 | 0 | 0 | 0 | 0.38 | 0 | 0 | 0 | 0 | 0 | 0 | 0 | 0 | 0 | 0 | 0 | 0
CC(C)(C)c1cnc(CSc2cnc(NC(=O)C3CCNCC3)s2)o1 (max dose 10000 nM) | 4.58 | 25.3 | 10.9 | 2.55 | 9.49 | 22.2 | 18.5 | 12.5 | 2.24 | 38.9 | 22.9 | 16.7 | 9.88 | 3.03 | 25.9 | 12.1 | 19
